Source: patent US10857167B2, “Use of oligosaccharide compositions to enhance weight gain” (Children's Hospital Medical Center, priority 2015, dated 2020)
The source gives many values for each of these; only a part stands here.

Tested on: distal small bowel gene expression
Test: RNA sequencing / transcriptional analysis of small bowel 56 days after ICR (2′-FL signature response)
Type: in vivo, mouse
Text: Luminal small bowel contents were expressed into AllProtect Tissue Reagent (Qiagen Inc, CA). Bacterial DNA was extracted using the AllPrep DNA/RNA Mini Kit (Qiagen Inc, CA), according to kit instructions and prior to sequencing (described below). Small bowel tissue samples for RNA were placed into RNA Later (Life Technologies, NY). RNA extraction was accomplished following Qiagen RNeasy Plus Kit instruction (Qiagen Inc, CA). All nucleic acid samples were then stored at -80 Celsius until sequenced (described below). Transcriptional analysis was carried out on resected and harvested small bowel samples obtained from operated mice taken to 8 weeks. Murine RNA sequencing libraries were prepared from approximately 1.5 μg RNA using the TruSeq RNA Sample Preparation Kit (Illumina, Calif.) and sequenced using the HiSeq 2000 Sequencing System (Illumina, Calif.) with single-end 50 bp reads. Following removal of primers and barcodes, sequences were aligned to the mm10 genome using reference annotations from UCSC (Rosenbloom et al. (2015) Nucleic acids research 43: […]-681) (n=36,186 entities). Aligned reads were quantified and used to compute reads per kilobase per million mapped reads (RPKM); raw counts were then normalized using the DESeq algorithm and each harvested sample was baselined to its own resected sample. A filter was applied to the data, requiring at least three reads in all samples of at least one of the four experimental conditions (n=14,489 entities). The data discussed in this publication have been deposited in NCBI's Gene Expression Omnibus and are accessible through NCBI Gene Expression Omnibus (GEO) Series accession number GSE72590. Edgar et al. (2002) Nucleic acids research 30: 207-210. In order to characterize the impact of 2'-FL supplementation while accounting for the effect of ileoecal resection, a t-test was applied between resected and harvested samples within control and experimental animals. Significance was set at a p-value of ≤0.05 and a fold change of 3, which generated 2,576 differentially regulated entities across two comparisons. Gene set unions and intersections of the control and experimental gene sets were identified through Venn diagrams. From the master list, the gene list specific to animals supplemented with 2'-FL were removed in order to identify genes differentially regulated only by ICR (n=546 entities); this gene set characterizes the adaptive response. Further, the 2'-FL response (n=2,030 entities) was identified by removing the adaptive response signature described above from the master list, leaving only genes regulated by 2'-FL supplementation after ICR which were not found in the non-supplemented adaptive response. Heatmaps were generated using hierarchical clustering with the Pearson's Centered distance metric and the average linkage rule; both entities and samples were clustered. All genomic analyses described above were performed in Strand NGS (Strand Life Sciences, CA). Gene list functional enrichment was initially discovered using ToppFun, a member of the ToppGene Suite. Chen et al. (2009) Nucleic acids research 37: […]-311. No statistical correction was selected. Gene lists were further analyzed using ClueGO, a plugin for Cytoscape designed to decipher functionally grouped gene ontology and pathway annotation networks. Bindea et al. (2009) Bioinformatics 25: 1091-1093. At the time of data analysis, the annotation files were updated from sources to Jan. 1, 2015. “GO Term Fusion” was enabled to manage ontologic term redundancy and network specificity was set to medium. Results were restricted to pathways with p≤0.05 using Benjamini-Hochberg correction and Kappa scoring was set to 0.4. Biocyc annotations were assigned a rectangle, gene ontology biologic processes were assigned an ellipse, and […] annotations were assigned a diamond shape. No meaning was assigned to size or color. […]

Structure (SMILES): C[C@@H]1O[C@@H](O[C@H]2[C@H](O[C@H]3[C@H](O)[C@@H](O)C(O)O[C@@H]3CO)O[C@H](CO)[C@H](O)[C@@H]2O)[C@@H](O)[C@H](O)[C@@H]1O (stereo partly drawn) [2′-FL, 2′-fucosyllactose]
- Fold Change (Pre- to Post-op) (gene Npcd): −4.682
- Fold Change (Pre- to Post-op) (gene Npnt): −3.768
- Fold Change (Pre- to Post-op) (gene Npr2): −4.111
- Fold Change (Pre- to Post-op) (gene Nptxr): −4.5
- Fold Change (Pre- to Post-op) (gene Nrip1): −6.868
- Fold Change (Pre- to Post-op) (gene Nrip2): −3.525
- Fold Change (Pre- to Post-op) (gene Nrp2): −5.453
- Fold Change (Pre- to Post-op) (gene Nrxn1): −4.233
- Fold Change (Pre- to Post-op) (gene Nsf): −3.278
- Fold Change (Pre- to Post-op) (gene Ntn1): −3.497
- Fold Change (Pre- to Post-op) (gene Ntsr1): −5.175
- Fold Change (Pre- to Post-op) (gene Nuak1): −4.597
- Fold Change (Pre- to Post-op) (gene Numa1): −3.183
- Fold Change (Pre- to Post-op) (gene Numbl): −3.947
- Fold Change (Pre- to Post-op) (gene Nup210): −3.493
- Fold Change (Pre- to Post-op) (gene Nup214): −3.254
- Fold Change (Pre- to Post-op) (gene Obsl1): −7.607
- Fold Change (Pre- to Post-op) (gene Ocrl): −3.017
- Fold Change (Pre- to Post-op) (gene Ocstamp): −3.642
- Fold Change (Pre- to Post-op) (gene Olfml2a): −4.749
- Fold Change (Pre- to Post-op) (gene Orm1): −3.4
- Fold Change (Pre- to Post-op) (gene Osbpl7): −3.933
- Fold Change (Pre- to Post-op) (gene P2rx2): −7.423
- Fold Change (Pre- to Post-op) (gene Pacs1): −12.77
- Fold Change (Pre- to Post-op) (gene Pacs2): −3.311
- Fold Change (Pre- to Post-op) (gene Pag1): −5.175
- Fold Change (Pre- to Post-op) (gene Pak6): −3.706
- Fold Change (Pre- to Post-op) (gene Palld): −5.022
- Fold Change (Pre- to Post-op) (gene Pappa): −4.378
- Fold Change (Pre- to Post-op) (gene Paqr3): −3.604
- Fold Change (Pre- to Post-op) (gene Pard3b): −3.71
- Fold Change (Pre- to Post-op) (gene Patl1): −4.295
- Fold Change (Pre- to Post-op) (gene Pbx1): −3.808
- Fold Change (Pre- to Post-op) (gene Pbx3): −3.437
- Fold Change (Pre- to Post-op) (gene Pcdh1): −4.568
- Fold Change (Pre- to Post-op) (gene Pcdh20): −5.134
- Fold Change (Pre- to Post-op) (gene Pcdha2): −3.906
- Fold Change (Pre- to Post-op) (gene Pcdhga1): −3.557
- Fold Change (Pre- to Post-op) (gene Pcdhga2): −3.732
- Fold Change (Pre- to Post-op) (gene Pcdhga3): −3.45
- Fold Change (Pre- to Post-op) (gene Pcdhga7): −3.724
- Fold Change (Pre- to Post-op) (gene Pcdhga8): −3.616
- Fold Change (Pre- to Post-op) (gene Pcdhga11): −3.631
- Fold Change (Pre- to Post-op) (gene Pcdhga12): −3.372
- Fold Change (Pre- to Post-op) (gene Pcdhgb6): −4.149
- Fold Change (Pre- to Post-op) (gene Pcdhgc3): −4.376
- Fold Change (Pre- to Post-op) (gene Pcdhgc4): −4.034
- Fold Change (Pre- to Post-op) (gene Pcnt): −3.968
- Fold Change (Pre- to Post-op) (gene Pcnxl3): −5.828
- Fold Change (Pre- to Post-op) (gene Pcp2): −4.218
- Fold Change (Pre- to Post-op) (gene Pcsk5): −4.34
- Fold Change (Pre- to Post-op) (gene Pcsk6): −4.434
- Fold Change (Pre- to Post-op) (gene Pde2a): −4.009
- Fold Change (Pre- to Post-op) (gene Pde4a): −4.609
- Fold Change (Pre- to Post-op) (gene Pde7b): −4.931
- Fold Change (Pre- to Post-op) (gene Pde11a): −6.954
- Fold Change (Pre- to Post-op) (gene Pdgfrb): −6.671
- Fold Change (Pre- to Post-op) (gene Pds5a): −3.546
- Fold Change (Pre- to Post-op) (gene Pear1): −5.721
- Fold Change (Pre- to Post-op) (gene Pecam1): −4.848
- Fold Change (Pre- to Post-op) (gene Peli2): −3.546
- Fold Change (Pre- to Post-op) (gene Pelp1): −3.18
- Fold Change (Pre- to Post-op) (gene Per1): −4.285
- Fold Change (Pre- to Post-op) (gene Pfkfb3): −3.197
- Fold Change (Pre- to Post-op) (gene Pglyrp2): −4.794
- Fold Change (Pre- to Post-op) (gene Phactr1): −3.566
- Fold Change (Pre- to Post-op) (gene Phactr4): −4.611
- Fold Change (Pre- to Post-op) (gene Phc1): −7.424
- Fold Change (Pre- to Post-op) (gene Phf2): −5.11
- Fold Change (Pre- to Post-op) (gene Phf3): −3.298
- Fold Change (Pre- to Post-op) (gene Phf8): −3.544
- Fold Change (Pre- to Post-op) (gene Pi4ka): −3.286
- Fold Change (Pre- to Post-op) (gene Pianp): −7.763
- Fold Change (Pre- to Post-op) (gene Piezo1): −4.33
- Fold Change (Pre- to Post-op) (gene Pik3ap1): −8.643
- Fold Change (Pre- to Post-op) (gene Pik3cg): −4.03
- Fold Change (Pre- to Post-op) (gene Pik3r1): −3.669
- Fold Change (Pre- to Post-op) (gene Pik3r5): −3.531
- Fold Change (Pre- to Post-op) (gene Pip4k2b): −3.317
- Fold Change (Pre- to Post-op) (gene Pip5k1c): −3.235
- Fold Change (Pre- to Post-op) (gene Pitpnc1): −4.434
- Fold Change (Pre- to Post-op) (gene Pkd1): −3.65
- Fold Change (Pre- to Post-op) (gene Pkd2): −3.478
- Fold Change (Pre- to Post-op) (gene Pknox2): −4.43
- Fold Change (Pre- to Post-op) (gene Plagl2): −3.073
- Fold Change (Pre- to Post-op) (gene Plbd2): −3.329
- Fold Change (Pre- to Post-op) (gene Plcb2): −3.046
- Fold Change (Pre- to Post-op) (gene Plcb4): −6.88
- Fold Change (Pre- to Post-op) (gene Plch2): −4.41
- Fold Change (Pre- to Post-op) (gene Pld4): −3.663
- Fold Change (Pre- to Post-op) (gene Plec): −6.896
- Fold Change (Pre- to Post-op) (gene Plekhg1): −3.043
- Fold Change (Pre- to Post-op) (gene Plekhg2): −5.53
- Fold Change (Pre- to Post-op) (gene Plekhm1): −3.803
- Fold Change (Pre- to Post-op) (gene Plod1): −3.51
- Fold Change (Pre- to Post-op) (gene Pltp): −3.34
- Fold Change (Pre- to Post-op) (gene Plvap): −3.756
- Fold Change (Pre- to Post-op) (gene Plxdc1): −3.304
- Fold Change (Pre- to Post-op) (gene Plxna1): −3.777
- Fold Change (Pre- to Post-op) (gene Plxna4): −7.249
- Fold Change (Pre- to Post-op) (gene Plxnd1): −5.727
- Fold Change (Pre- to Post-op) (gene Pml): −3.779
- Fold Change (Pre- to Post-op) (gene Pnliprp2): −4.604
- Fold Change (Pre- to Post-op) (gene Pnpla3): −9.606
- Fold Change (Pre- to Post-op) (gene Podxl): −4.473
- Fold Change (Pre- to Post-op) (gene Pogk): −4.38
- Fold Change (Pre- to Post-op) (gene Pogz): −3.485
- Fold Change (Pre- to Post-op) (gene Pole): −3.057
- Fold Change (Pre- to Post-op) (gene Polr1a): −3.227
- Fold Change (Pre- to Post-op) (gene Pom121): −4.661
- Fold Change (Pre- to Post-op) (gene Porcn): −4.398
- Fold Change (Pre- to Post-op) (gene Ppard): −4.207
- Fold Change (Pre- to Post-op) (gene Ppm1l): −3.399
- Fold Change (Pre- to Post-op) (gene Ppp1r3e): −6.615
- Fold Change (Pre- to Post-op) (gene Ppp1r9b): −4.154
- Fold Change (Pre- to Post-op) (gene Ppp1r12a): −3.393
- Fold Change (Pre- to Post-op) (gene Ppp1r12b): −4.323
- Fold Change (Pre- to Post-op) (gene Ppp1r26): −4.92
- Fold Change (Pre- to Post-op) (gene Ppp2r2c): −3.328
- Fold Change (Pre- to Post-op) (gene Prdm2): −3.47
